# According to PubChem BioAssay AID587 (National Center for Advancing Translational Sciences (NCATS), 2007):
# The whole screen tested about 59,000 compounds, of which about 35 (0.06%) were called active. Inconclusive means that the source gave no clear call. Such entries were picked first, then a sample of the others. Cut-off read from the data, not from the text of the source: active = max dye-equivalent concentration above about 10 nM; inconclusive = between about 1.1 nM and that limit; inactive = weaker than that.
# Experiment: qHTS Assay for Spectroscopic Profiling in Texas Red Spectral Region
# Conditions: Compound fluorescence, Texas Red channel, 547/618 nm; stronger effect = higher value
# Procedure, shortened: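 Dye-equivalent concentrations come from scaling compound signal (ex 547, em 618 nm) to six Texas Red standard concentrations run on every plate, after 15 min room-temperature incubation in pH 8.0 Tris (100 mM).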
row,Structure (SMILES),max dye-equivalent concentration
1,CN(C)c1ccc(C(c2nnnn2C2CCCCC2)N2CCN(C(=O)c3ccco3)CC2)cc1 (centres undefined),inconclusive: 1.1 nM
2,NC1=NC(c2cccc(O)c2)n2c(nc3ccccc32)N1 (centres undefined),inconclusive: 2.7 nM
3,Cc1cccc(C)c1N(CC(=O)N1CCN(C)CC1)S(C)(=O)=O,inconclusive: 1.8 nM
4,O=C(Nc1ccccc1F)c1cc(S(=O)(=O)N2CCCCC2)cs1,inactive
5,CCc1nnc(NC(=O)CSc2nnc(-c3ccoc3C)n2CC(C)C)s1,inconclusive: 1.4 nM
6,CN(C(=O)c1ccncc1)C1CC(C)(C)N(O)C(C)(C)C1,inconclusive: 1.7 nM
7,CC(C)(C)NC(=O)C(c1ccncc1)N(Cc1cccs1)C(=O)Cn1nnc(-c2cccs2)n1 (centres undefined),inconclusive: 1.3 nM
8,COC(=O)C1=C(C)NC(=O)CC1c1ccc(F)c(Br)c1 (centres undefined),inconclusive: 1.2 nM
9,CCOc1ccc(C2C(C(=O)O)c3ccccc3C(=O)N2CCN2CCOCC2)cc1 (centres undefined),inactive
10,CCc1nc2c3cnn(-c4cc(Cl)ccc4C)c3ncn2n1,inconclusive: 2 nM
11,CC(C)(C)OC(=O)N1Cc2ccccc2C[C@H]1C(=O)O,inconclusive: 1.9 nM
12,CCN(CC)C(=O)N1c2ccccc2CC(N(CC)CC)c2ccccc21 (centres undefined),inconclusive: 1.3 nM
13,Cc1ccc2c(c1)C(C)(C)[C@]1(C)NC(=O)CCN21,inconclusive: 1.2 nM
14,COc1cc(CN(C)CC(=O)c2[nH]c(C)c(C(C)=O)c2C)ccc1OC(F)F,inconclusive: 1.4 nM
15,CC(C(=O)NC1CCCc2ccccc21)N1CCN(Cc2ccc3c(c2)OCO3)CC1 (centres undefined),inconclusive: 1.3 nM
16,O=c1cc(CSc2nc3cc(Cl)ccc3o2)nc2sccn12,inconclusive: 1.6 nM
17,COc1ccc(S(=O)(=O)N(CCCN2CCOCC2)Cc2ccc(OC)c(OC)c2)cc1,inconclusive: 1.5 nM
18,O=C(Nc1ccc(S(=O)(=O)N2CCOCC2)cc1)c1ccco1,inconclusive: 1.6 nM
19,Cc1cc(NC(=O)c2ccc(Cn3nc(C)c(Br)c3C)o2)no1,inconclusive: 2.5 nM
20,Cc1cnc(C(=O)Nc2nnc(C(C)C)s2)cn1,inconclusive: 1.1 nM
21,O=C(CSCCO)Nc1nccs1,inconclusive: 1.5 nM
22,C/C=C(\C)c1nnc(NC(=O)OCC)s1,inconclusive: 1.2 nM
23,COc1ccc(NC(=O)CSc2nnc(-c3ccncc3)n2CC2CCCO2)c(OC)c1 (centres undefined),inconclusive: 1.7 nM

row,Structure (SMILES),max dye-equivalent concentration
1,Cc1ccc(-n2ncc3c(=O)n(Cc4cccnc4)cnc32)cc1,inconclusive: 2.3 nM
2,Cc1cc(C)n(-c2nc3c(c(=O)[nH]c(=O)n3C)n2CC(C)C)n1,inconclusive: 2.9 nM
3,COc1ccc(C(=O)CSc2nnc(-c3cc4ccccc4cc3O)n2Cc2ccco2)cc1,inconclusive: 1.1 nM
4,CCC1Sc2ccccc2N(CC(=O)NCc2ccc3c(c2)OCO3)C1=O (centres undefined),inconclusive: 1.1 nM
5,Cc1noc(C)c1-c1nccc(NCc2cccs2)n1,inactive
6,COc1ccc(NC(=O)CSc2nnc(-c3ccccn3)n2N)cc1Cl,inconclusive: 1.1 nM
7,COCCNC(=O)CCCCCN1C(=O)CCC1=O,inconclusive: 1.6 nM
8,CCCN1CCC(NC(=O)Nc2ccc(OC)c(OC)c2)CC1,inconclusive: 1.1 nM
9,COc1ccc(C2c3c(oc4ccccc4c3=O)C(=O)N2CCN2CCOCC2)cc1OC (centres undefined),inconclusive: 1.3 nM
10,COc1ccc(-c2nc3cnc(N(C)C)nc3n(Cc3cccs3)c2=O)cc1,inactive
11,Cc1ccc(S(=O)(=O)N2CCCC2C(=O)N(C)Cc2cccs2)cc1 (centres undefined),inconclusive: 1.2 nM
12,CC(=O)Nc1ccc(Oc2nc(C)cc(C)n2)cc1,inconclusive: 1.3 nM
13,Cn1c(=O)n(CC(=O)N2CCOCC2)c2ccccc21,inconclusive: 2.1 nM
14,CCNc1nc(N)c(C(=O)c2ccc(Cl)s2)s1,inconclusive: 1.1 nM
15,O=C(CCC1COc2ccccc2O1)Nc1cccnc1 (centres undefined),inactive
16,Cn1nc(C(=O)Nc2sccc2C(N)=O)ccc1=O,inactive
17,COc1ccccc1NC(=O)C1CCCCN1S(=O)(=O)c1ccc(F)cc1 (centres undefined),inconclusive: 1.2 nM
18,O=C(CC1(O)C(=O)N(Cc2ccc3c(c2)OCO3)c2ccccc21)c1ccccc1 (centres undefined),inconclusive: 1.3 nM
19,Cc1ccc(S(=O)(=O)N(CCO)c2cc3c(s2)CCCC3)cc1,inconclusive: 2 nM
20,CC(=O)c1c(C)[nH]c(C(=O)NCc2ccccc2Cl)c1C,inconclusive: 2.2 nM
21,O=C(CN1C(=O)C2C3C=CC(C3)C2C1=O)Nc1nc(SCc2ccc(Cl)cc2)n[nH]1 (centres undefined),inconclusive: 1.1 nM
22,Cc1ccc(C(=O)C2=C(O)C(=O)N(Cc3ccccc3)C2c2cccnc2)o1 (centres undefined),inconclusive: 1.7 nM
23,COc1ccc(/C(O)=C2\C(=O)C(=O)N(c3cc(C)on3)C2c2ccc(OC)c(OC)c2)cc1OC (centres undefined),inconclusive: 1.3 nM

row,Structure (SMILES),max dye-equivalent concentration
1,CC(C)(C)c1ccc([C@@H](O)CCCN2CCC(C(O)(c3ccccc3)c3ccccc3)CC2)cc1,inconclusive: 1.6 nM
2,CC1=Nc2ncnn2C(c2ccccc2)/C1=N\O (centres undefined),inconclusive: 1.6 nM
3,CCn1c(=S)sc2c(=O)n(-c3ccccc3)c(SC)nc21,inconclusive: 1.4 nM
4,CCNC(=O)c1ccc2c(c1)S(=O)(=O)c1ccccc1C2=O,inconclusive: 1.3 nM
5,O=C(CSc1ncn[nH]1)OCN1C(=O)c2ccccc2C1=O,inconclusive: 1.5 nM
6,CCCn1c(NC(=O)c2ccc(C)cc2)nc2ccccc21,inconclusive: 1.2 nM
7,C=CCN=C(C)C1=C(O)CCC1=O,inconclusive: 1.6 nM
8,Cc1nc2ncnn2c(C)c1CCC(=O)O,inconclusive: 1.5 nM
9,CC(=O)N(c1cccc(Br)c1)C1C=CS(=O)(=O)C1 (centres undefined),inconclusive: 1.1 nM
10,O=C(CC1C(=O)NCCN1C(=O)c1ccc(F)cc1)OCc1ccccc1 (centres undefined),inconclusive: 1.9 nM
11,CC1(C)C(=O)Nc2ccccc2N1C(=O)COc1ncnc2ccccc12,inconclusive: 1.7 nM
12,O=C(Nc1ncc(C(F)(F)F)cc1Cl)C1COc2ccccc2O1 (centres undefined),inconclusive: 1.5 nM
13,C[N+]1(C)CC[C@@H](OC(=O)[C@@](O)(c2ccccc2)C2CCCC2)C1,inactive
14,Cc1ccc(NS(=O)(=O)c2cc(C(=O)O)ccc2Cl)cc1,inconclusive: 1.3 nM
15,CC(C)(C)n1nc2c(c1NC(=O)c1ccc(S(=O)(=O)N3CCCC3)cc1)CS(=O)C2 (centres undefined),inactive
16,Cc1nn(Cc2ccccc2)c(C)c1CCC(=O)O,inconclusive: 1.4 nM
17,CC1(C)S[C@@H]2[C@H](NC(=O)C(N)c3ccccc3)C(=O)N2[C@H]1C(=O)O (some centres undefined),inactive
18,CCOC(=O)N1CCN(S(=O)(=O)c2ccc(OCC(=O)OC)cc2)CC1,inconclusive: 1.7 nM
19,Cc1cc(NC(=O)C(C)C)ncc1NC(=O)Cc1ccccc1,inconclusive: 1.4 nM
20,Cn1c(C(C#N)C2=C(Cl)C(=O)N(c3ccccc3)C2=O)nc2ccccc21 (centres undefined),inconclusive: 1.2 nM
21,O=C(CS(=O)(=O)Cc1ccccc1)Nc1nc2ccccc2s1,inconclusive: 1.5 nM
22,CCn1c(=O)cc(OCC(=O)NCc2cccnc2)c2ccccc21,inconclusive: 1.6 nM
23,COc1cccc(NC(=O)N2CCCC2C(=O)NCC(C)C)c1 (centres undefined),inconclusive: 2.1 nM

# 18 of the compounds above, tab-delimited.
row	Structure (SMILES)	max dye-equivalent concentration
1	CC(C)(C)c1ccc([C@@H](O)CCCN2CCC(C(O)(c3ccccc3)c3ccccc3)CC2)cc1	inconclusive: 1.6 nM
2	CC1=Nc2ncnn2C(c2ccccc2)/C1=N\O (centres undefined)	inconclusive: 1.6 nM
6	CCCn1c(NC(=O)c2ccc(C)cc2)nc2ccccc21	inconclusive: 1.2 nM
7	C=CCN=C(C)C1=C(O)CCC1=O	inconclusive: 1.6 nM
9	CC(=O)N(c1cccc(Br)c1)C1C=CS(=O)(=O)C1 (centres undefined)	inconclusive: 1.1 nM
10	O=C(CC1C(=O)NCCN1C(=O)c1ccc(F)cc1)OCc1ccccc1 (centres undefined)	inconclusive: 1.9 nM
11	CC1(C)C(=O)Nc2ccccc2N1C(=O)COc1ncnc2ccccc12	inconclusive: 1.7 nM
13	C[N+]1(C)CC[C@@H](OC(=O)[C@@](O)(c2ccccc2)C2CCCC2)C1	inactive
14	Cc1ccc(NS(=O)(=O)c2cc(C(=O)O)ccc2Cl)cc1	inconclusive: 1.3 nM
15	CC(C)(C)n1nc2c(c1NC(=O)c1ccc(S(=O)(=O)N3CCCC3)cc1)CS(=O)C2 (centres undefined)	inactive
16	Cc1nn(Cc2ccccc2)c(C)c1CCC(=O)O	inconclusive: 1.4 nM
17	CC1(C)S[C@@H]2[C@H](NC(=O)C(N)c3ccccc3)C(=O)N2[C@H]1C(=O)O (some centres undefined)	inactive
18	CCOC(=O)N1CCN(S(=O)(=O)c2ccc(OCC(=O)OC)cc2)CC1	inconclusive: 1.7 nM
19	Cc1cc(NC(=O)C(C)C)ncc1NC(=O)Cc1ccccc1	inconclusive: 1.4 nM
20	Cn1c(C(C#N)C2=C(Cl)C(=O)N(c3ccccc3)C2=O)nc2ccccc21 (centres undefined)	inconclusive: 1.2 nM
21	O=C(CS(=O)(=O)Cc1ccccc1)Nc1nc2ccccc2s1	inconclusive: 1.5 nM
22	CCn1c(=O)cc(OCC(=O)NCc2cccnc2)c2ccccc21	inconclusive: 1.6 nM
23	COc1cccc(NC(=O)N2CCCC2C(=O)NCC(C)C)c1 (centres undefined)	inconclusive: 2.1 nM

# The listing continues.

row,Structure (SMILES),max dye-equivalent concentration
1,c1cc(C(c2nnnn2C2CCCC2)N2CCOCC2)ccn1 (centres undefined),inconclusive: 1.4 nM
2,CC(=O)N1CCN(c2ccccc2NC(=O)COc2ccc(Cl)cc2Cl)CC1,inconclusive: 1.8 nM
3,CCc1sc(NC(=O)CN2CCOCC2)nc1-c1ccccc1,inconclusive: 1.3 nM
4,C=CCn1c(SCc2ccccc2C#N)nnc1-c1cc(Br)ccc1O,inconclusive: 1.6 nM
5,CCN(CC)CCOc1cc2c(nn1)Oc1ccccc1N2C,inconclusive: 1.5 nM
6,COc1ccc2[nH]cc(CCNc3ccnc(-c4ccc5c(c4)OCO5)n3)c2c1,inactive
7,CNC(=O)CN(c1ccc(OC)cc1)S(=O)(=O)c1ccc(F)cc1,inconclusive: 1.1 nM
8,NC(N)=NC(N)=Nc1ccc(S(N)(=O)=O)cc1,inactive
9,C=CCn1c(SCC(=O)O)nnc1-c1ccc(C(C)(C)C)cc1,inconclusive: 1.3 nM
10,CCn1nc(-c2ccccc2)c2nc3ccccc3nc21,inactive
11,CCCCn1c(=O)cc(O)c2ccccc21,inconclusive: 1.4 nM
12,CN(C)c1ccc(-c2nc(NCc3cccnc3)c3ccccc3n2)cc1,inactive
13,Cc1nnc2sc(-c3ccc(NC(=O)c4ccc(-c5ccc(Cl)cc5Cl)o4)cc3)nn12,inconclusive: 1.6 nM
14,NC1CCCCC1N=Cc1c(O)n(CCc2ccc(F)cc2)c(=O)[nH]c1=O (centres undefined),inconclusive: 1.5 nM
15,Cc1nc2cc(C(=O)O)ccc2s1,inconclusive: 1.3 nM
16,O=C(Cn1nnc2ccccc21)NC1CCCCC1,inconclusive: 3.2 nM
17,CN(Cc1ccco1)c1cc(-c2ccc3c(c2)OCO3)ncn1,inactive
18,Cc1cc(C)n(Cc2cccc(F)c2)c(=O)c1C#N,inconclusive: 2.2 nM
19,COCCNc1nnc(SCC(=O)N2CCN(S(=O)(=O)c3ccccc3)CC2)s1,inconclusive: 1.2 nM
20,CC1CN(c2nc3c(c(=O)n(C)c(=O)n3C)n2Cc2c(F)cccc2Cl)CC(C)O1 (centres undefined),inconclusive: 1.5 nM
